Measurements reported in PubChem BioAssay AID1259308 (NCATS, 2017).

Screen: 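Knock-downs that increase output of a recombinant reporter protein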 (primary screen)
Cell system: human HEK293 embryonic kidney cells stably expressing firefly luciferase (HEK-CMV-Luc2-Hygro)
Reagent: single siRNA against human genes, 0.8 pmol siRNA per well
Timing: 72 h
Read-out: 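Reporter luminescence and viable-cell signal on separate replicate plates, given as percent of non-targeting control and median/MAD z-scores, plus per-cell luciferase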
Direction: total luciferase, z-score: higher = more reporter protein produced
Active means: 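An siRNA counts as active if its total luciferase robust z-score exceeds 3; genes with two or more such siRNAs out of three were retested with fresh siRNAs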
Calls: active = raised luciferase; inactive = no rise
The deposit covers about 59,000 reagents; this is a random part of them. About 1,510 of them (2.6%) count as active. 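Calls use total luciferase alone and ignore viability, so some active siRNAs may act by altering cell number.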 Reagents against one gene are numbered here. Not all columns of the deposit are shown. No sequences are given here.

| target gene | siRNA no. | total luciferase, z-score | activity call |
| --- | --- | --- | --- |
| FDFT1 | 1 | 0.957 | inactive |
| FDFT1 | 2 | 1.14 | inactive |
| FDFT1 | 3 | 0.194 | inactive |
| RELA | 1 | 0.446 | inactive |
| RELA | 2 | -0.707 | inactive |
| RELA | 3 | -0.0193 | inactive |
| G6PC2 | 1 | 0.945 | inactive |
| G6PC2 | 2 | -0.188 | inactive |
| G6PC2 | 3 | 0.158 | inactive |
| COPB1 | 1 | 1.14 | inactive |
| COPB1 | 2 | 0.195 | inactive |
| COPB1 | 3 | 2.6 | inactive |
| ARHGAP8 | 1 | -0.746 | inactive |
| ARHGAP8 | 2 | 0.0759 | inactive |
| ARHGAP8 | 3 | -0.0959 | inactive |
| TMEM236 | 1 | 0.631 | inactive |
| TMEM236 | 2 | 0.687 | inactive |
| TMEM236 | 3 | 0.0838 | inactive |
| RPS13 | 1 | -2.94 | inactive |
| RPS13 | 2 | -2.66 | inactive |
| RPS13 | 3 | -0.967 | inactive |
| MRPS10 | 1 | 0.662 | inactive |
| MRPS10 | 2 | 1.35 | inactive |
| MRPS10 | 3 | -0.0679 | inactive |

Laid out differently: 6 of the entries above.
target gene	siRNA no.	total luciferase, z-score	activity call
ARHGAP8	2	0.0759	inactive
ARHGAP8	3	-0.0959	inactive
TMEM236	1	0.631	inactive
TMEM236	2	0.687	inactive
TMEM236	3	0.0838	inactive
RPS13	1	-2.94	inactive

Next entries follow.
| target gene | siRNA no. | total luciferase, z-score | activity call |
| --- | --- | --- | --- |
| LOC727978 (retired record) | 1 | -0.324 | inactive |
| LOC727978 (retired record) | 2 | 0.0761 | inactive |
| LOC727978 (retired record) | 3 | 0.338 | inactive |
| LINC02499 | 1 | -1.67 | inactive |
| LINC02499 | 2 | -0.524 | inactive |
| LINC02499 | 3 | 0.0324 | inactive |
| ZNF84 | 1 | 1.11 | inactive |
| ZNF84 | 2 | -2.41 | inactive |
| ZNF84 | 3 | -0.802 | inactive |
| SH2D1B | 1 | -1.21 | inactive |
| SH2D1B | 2 | -0.504 | inactive |
| SH2D1B | 3 | -0.0877 | inactive |
| RNF214 | 1 | 1.3 | inactive |
| RNF214 | 2 | -0.167 | inactive |
| RNF214 | 3 | -1.33 | inactive |
| KIF17 | 1 | -0.839 | inactive |
| KIF17 | 2 | -0.191 | inactive |
| KIF17 | 3 | -0.025 | inactive |
| HCFC1R1 | 1 | 1.43 | inactive |
| HCFC1R1 | 2 | 0.447 | inactive |
| HCFC1R1 | 3 | -0.0145 | inactive |
| DNLZ | 1 | -0.695 | inactive |
| DNLZ | 2 | -0.492 | inactive |
| DNLZ | 3 | -0.22 | inactive |
| TEX12 | 1 | 0.392 | inactive |
| TEX12 | 2 | -0.302 | inactive |
| TEX12 | 3 | -1.03 | inactive |
| LINC01433 | 1 | -0.55 | inactive |
| LINC01433 | 2 | -0.538 | inactive |
| LINC01433 | 3 | -3.12 | inactive |
| GRINA | 1 | -1.45 | inactive |
| GRINA | 2 | -1.31 | inactive |
| GRINA | 3 | 1.48 | inactive |
